Measured values taken from publication PMC6751215.
These are yes or no findings as the source states them, for the method shown. Some binding calls cover weakened binding; strength is not graded here.

Target: VIRE2-… PROTEIN2 (VIP2), full length (Arabidopsis) (UniProt Q9FPW4)
Assay: two-hybrid; VIP2 constructs and VirE2 in the DNA-BD vector pXDGAT-CY86 (baits), full-length VIP2 and VirE2 in the DNA-AD vector pGADT7-Rec7G (preys); co-transformed into AH109 (the legend says mating of AH109 and MaV204K); selection on SD lacking Ade, His, Trp, Leu with 10 mM 3-AT and X-gal; LacZ quantified by beta-galactosidase activity

B1: VIRE2-… PROTEIN2 (VIP2), full length (protein, UniProt Q9FPW4 1-614)
chain: MSNLHSSLNGSASNLPDGSGRSFTASYSGQSGAPSPSFHHTGNLQGLHNIHGNYNVGNMQGTLTSRNSSMNSIPSAGVQQPNGSFSSGRFASNNLPVNLSQLSHGSSHGHSGIPNRGLNVVGNPGFSSNANGVGGSIPGILSTSAGLSNRNSVPGMGISQLLGNSGPRITNSMGNMVGGGNLGRNISSGGLSIPGLSSRLNLAANSGSGLNVQGQNRMMGGVLPQGSQVMSMLGNSYHTGGGPLSQNHVQSVNNMMLSDHPNDSSLFDINNDFPQLTSRPGSAGGTQGHLGSLRKQGLGVPLVQQNQEFSIQNEDFPALPGYKGGNSEYPMDLHQKEQLHDNAMSMMHSQNFSMGRSGGFNLGATYSSHRPQQQPQHTSSTGGLQGLGLRPLSSPNAVSSIGYDQLIQQYQQHQNQSQFPVQQMSSINQFRDSEMKSTQSEADPFCLLGLLDVLNRSNPELTSLALGIDLTTLGLDLNSTGNLYKTFASPWTNEPAKSEVEFTVPNCYYATEPPPLTRASFKRFSYELLFYTFYSMPKDEAQLYAADELYERGWFYHKELRVWFFRVGEPLVRAATYERGTYEYLDPNSFKTVRKEHFVIKYELMEKRPSLLQL
binding: binds
